{
  "source": "patent US20250276033A1",
  "about": "“COMPOSITIONS FOR IMPROVING KIDNEY FUNCTION IN PATIENTS WITH HEPATORENAL SYNDROME” (Mallinckrodt Pharmaceuticals Ireland Limited, priority 2022, published 2025)",
  "key": {"[1]": {"system": "patients with HRS-1", "experiment": "ACLF grade and respiratory failure with terlipressin, double-blind placebo-controlled trial (Example 3)", "type": "in vivo, human", "conditions": "ACLF grade 3, versus ACLF 0-2 on terlipressin or placebo; FIG. 5", "method": "In FIG. 6B, the incidence of respiratory failure was based on CLIF-SOFA score definition of respiratory failure.\nThe study was a double-blind placebo-controlled trial. […] HRS-1 was defined as rapidly rising serum creatinine (SCr) to ≥2.25 mg/dl in <14 days without response to volume challenge or evidence of structural renal disease.\nAll patients were assessed for organ failure (OF) per EASL-CLIF criteria and then classified into grades of acute-on-chronic liver failure (ACLF). All patients had at minimum grade 1 ACLF due to the presence of HRS-1; grades 2 and 3 ACLF represent 2 or 3 OFs respectively. Patients were separated into into grade≤2 and grade 3 ACLF subgroups."}, "[2]": {"system": "adult patients with HRS type 1", "experiment": "REVERSE randomized, placebo-controlled, double-blind study of terlipressin", "conditions": "for overall survival rate: treatment group"}, "[3]": {"experiment": "Storage of the reconstituted solution", "type": "physicochemical"}, "[4]": {"system": "patients with hepatorenal syndrome type 1 (HRS-1)", "experiment": "Pharmacodynamics after a single 0.85 mg dose: blood pressure and heart rate", "type": "in vivo, human"}, "[5]": {"system": "patients with HRS-1", "experiment": "CONFIRM randomized, placebo-controlled, double-blind study of terlipressin plus albumin"}, "[6]": {"conditions": "HRS-1 with at least two of three SIRS criteria"}, "[7]": {"conditions": "HRS-1 with fewer than two SIRS criteria"}, "[8]": {"conditions": "ITT population, SIRS subgroup, N = 84"}, "[9]": {"conditions": "SIRS subgroup with HRS reversal and/or at least 30% improvement in SCr"}, "[10]": {"conditions": "SIRS subgroup with HRS reversal and/or greater than 30% improvement in SCr, N = 33"}},
  "note": "Not every detail of the peptide structures is certain; ends, links or a residue may be inferred. Where a SMILES comes first, the peptide text is derived from it. Bridges are numbered along the chain shown (N, C = ends).",
  "data": [
    {"smiles": "NCCCC[C@H](NC(=O)[C@@H]1CCCN1C(=O)[C@@H]1CSSC[C@H](NC(=O)CNC(=O)CNC(=O)CN)C(=O)N[C@@H](Cc2ccc(O)cc2)C(=O)N[C@@H](Cc2ccccc2)C(=O)N[C@@H](CCC(N)=O)C(=O)N[C@@H](CC(N)=O)C(=O)N1)C(=O)NCC(N)=O", "note": "[Terlipressin, N—[N—(N-glycylglycyl)glycyl]-8-L-lysinevasopressin] (H-GGGCYFQNCPKG-NH2; disulfide 4-9 (inferred))", "values": [
      {"measurement": "90-day survival", "setting": "[1]", "result": "lower likelihood of survival"},
      {"measurement": "HRS reversal", "setting": "[2]; [6]", "result": 42.9, "unit": "%"},
      {"measurement": "renal function (change from baseline in SCr)", "setting": "[2]; [6]", "result": -1.7, "unit": "mg/dL"},
      {"measurement": "confirmed reversal of HRS", "setting": "[2]; HRS-1 with at least two of three SIRS criteria, 1 mg IV every 6 h", "result": 32.1, "unit": "%"},
      {"measurement": "HRS reversal", "setting": "[2]; [7]", "result": 15.9, "unit": "%"},
      {"measurement": "confirmed reversal of HRS", "setting": "[2]; [7]", "result": 14.5, "unit": "%"},
      {"measurement": "renal function change (SCr)", "setting": "[2]; [7]", "result": -0.8, "unit": "mg/dL"},
      {"measurement": "overall survival rate", "setting": "[2]; two or more SIRS criteria", "result": 57.1, "unit": "%"},
      {"measurement": "overall survival rate", "setting": "[2]; without at least two SIRS criteria", "result": 58, "unit": "%"},
      {"measurement": "light protection of the reconstituted solution", "setting": "[3]", "result": "does not need protection from light"},
      {"measurement": "storage time of the reconstituted solution", "setting": "[3]; 2° C. to 8° C., reconstituted in 5 mL of 0.9% Sodium Chloride Injection", "result": "up to 48 hours"},
      {"measurement": "estimated maximum effect for heart rate (decrease)", "setting": "[4]", "result": 10.6, "unit": "beats/minute"},
      {"measurement": "estimated maximum effect on MAP (increase)", "setting": "[4]", "result": 16.2, "unit": "mmHg"},
      {"measurement": "time the blood pressure and heart rate effects were maintained after dosing", "setting": "[4]", "result": "at least 6 hours"},
      {"measurement": "time until increase in diastolic, systolic and MAP and decrease in heart rate were evident", "setting": "[4]", "result": "≤ 5", "unit": "min"},
      {"measurement": "patients requiring RRT post-transplant", "setting": "[5]; 9 of 46 transplanted patients", "result": 19.6, "unit": "%"},
      {"measurement": "Alive and Transplant-free at Day 90", "setting": "[5]; [8]", "result": "26 (31.0) n, %"},
      {"measurement": "Transplant-free Survival up to 90 Days, Survival Estimate", "setting": "[5]; [8]", "result": 0.290},
      {"measurement": "Transplant-free survival, Median Days of Survival", "setting": "[5]; [8]", "result": 15.0, "unit": "days"},
      {"measurement": "Incidence of Verified HRS Reversal without HRS Recurrence by Day 30", "setting": "[5]; N = 199", "result": "48 (24.1) n (%)"},
      {"measurement": "Verified HRS Reversal", "setting": "[5]; N = 199, primary endpoint", "result": "58 (29.1) n (%)"},
      {"measurement": "Durability of HRS reversal", "setting": "[5]; N = 199, without renal replacement therapy to Day 30", "result": "63 (31.7) n (%)"},
      {"measurement": "RRT-free survival estimate up to Day 90 versus placebo", "setting": "[5]; SIRS at baseline", "result": "higher"},
      {"measurement": "subjects admitted to the ICU", "setting": "[5]; SIRS at baseline, 14 subjects", "result": 16.7, "unit": "%"},
      {"measurement": "Cumulative Frequency of RRT through Day 30, Mean", "setting": "[5]; SIRS at baseline, N = 23", "result": 4.5},
      {"measurement": "Cumulative Frequency of RRT through Day 90, Mean", "setting": "[5]; SIRS at baseline, N = 27", "result": 7.3, "unit": "days"},
      {"measurement": "Subjects with RRT by Day 14", "setting": "[5]; SIRS at baseline, N = 84", "result": "(23.8) %"},
      {"measurement": "Subjects with RRT by Day 30", "setting": "[5]; SIRS at baseline, N = 84", "result": "(27.4) %"},
      {"measurement": "Subjects with RRT by Day 60", "setting": "[5]; SIRS at baseline, N = 84", "result": "(29.8) %"},
      {"measurement": "Subjects with RRT by day 90", "setting": "[5]; SIRS at baseline, N = 84", "result": "(32.1) %"},
      {"measurement": "overall survival estimate up to Day 90 versus placebo", "setting": "[5]; SIRS at baseline, after Day 30", "result": "slightly higher"},
      {"measurement": "alive and transplant-free at day 90", "setting": "[5]; [9]", "result": 45.5, "unit": "%"},
      {"measurement": "alive at day 90", "setting": "[5]; [9]", "result": 72.7, "unit": "%"},
      {"measurement": "Alive and Transplant-free at Day 90", "setting": "[5]; [10]", "result": "15 (45.5) n, %"},
      {"measurement": "Alive at Day 90", "setting": "[5]; [10]", "result": "24 (72.7) n, %"},
      {"measurement": "Overall Survival up to 90 Days, Survival Estimate", "setting": "[5]; [10]", "result": 0.727},
      {"measurement": "Transplant-free Survival up to 90 Days, Survival Estimate", "setting": "[5]; [10]", "result": 0.680},
      {"measurement": "HRS Reversal in the SIRS subgroup", "setting": "[5]; SIRS subgroup, N = 84", "result": "28 (33.3) n (%)"},
      {"measurement": "Verified HRS Reversal", "setting": "[5]; SIRS subgroup, N = 84", "result": "22 (26.2) n (%)"},
      {"measurement": "mean length of stay in the ICU", "setting": "[5]; SIRS subjects", "result": 6.3, "unit": "days"},
      {"measurement": "HRS reversal in SIRS subgroup", "setting": "[5]; mitigated population", "result": 41.2, "unit": "%"},
      {"measurement": "Subjects Alive without RRT by Day 14", "setting": "[5]; mitigated population", "result": "(81.3) %"},
      {"measurement": "Subjects Alive without RRT by Day 30", "setting": "[5]; mitigated population", "result": "(77.8) %"},
      {"measurement": "Subjects Alive without RRT by Day 60", "setting": "[5]; mitigated population", "result": "(72.2) %"},
      {"measurement": "Subjects Alive without RRT by Day 90", "setting": "[5]; mitigated population", "result": "(69.9) %"},
      {"measurement": "Subjects with RRT for alive subjects by Day 90", "setting": "[5]; mitigated population", "result": 30.1, "unit": "%"},
      {"measurement": "overall survival estimate up to Day 90", "setting": "[5]; mitigated population", "result": 55.3, "unit": "%"},
      {"measurement": "Durability of HRS reversal", "setting": "[5]; mitigated population, N = 132", "result": 38.6, "unit": "%"},
      {"measurement": "HRS reversal", "setting": "[5]; mitigated population, N = 132", "result": 44.7, "unit": "%"},
      {"measurement": "Verified HRS Reversal", "setting": "[5]; mitigated population, N = 132", "result": 36.4, "unit": "%"},
      {"measurement": "Verified HRS reversal without HRS recurrence by Day 30", "setting": "[5]; mitigated population, N = 132", "result": 28.8, "unit": "%"},
      {"measurement": "Subjects Alive without RRT by Day 14", "setting": "[5]; overall population", "result": "(78.1) %"},
      {"measurement": "Subjects Alive without RRT by Day 30", "setting": "[5]; overall population", "result": "(73.6) %"},
      {"measurement": "Subjects Alive without RRT by Day 60", "setting": "[5]; overall population", "result": "(71.4) %"},
      {"measurement": "Subjects Alive without RRT by Day 90", "setting": "[5]; overall population", "result": "(69.7) %"},
      {"measurement": "Subjects with RRT for alive subjects by Day 90", "setting": "[5]; overall population", "result": 30.3, "unit": "%"},
      {"measurement": "overall survival estimate up to Day 90", "setting": "[5]; overall population", "result": 48.2, "unit": "%"},
      {"measurement": "Durability of HRS reversal (HRS reversal without RRT to day 30)", "setting": "[5]; overall population, N = 199", "result": 31.7, "unit": "%"},
      {"measurement": "HRS reversal", "setting": "[5]; overall population, N = 199", "result": 36.2, "unit": "%"},
      {"measurement": "Verified HRS Reversal", "setting": "[5]; overall population, N = 199", "result": 29.1, "unit": "%"},
      {"measurement": "Verified HRS reversal without HRS recurrence by Day 30", "setting": "[5]; overall population, N = 199", "result": 24.1, "unit": "%"},
      {"measurement": "HRS reversal in SIRS subgroup", "setting": "[5]; overall population, SIRS subgroup N = 84", "result": 33.3, "unit": "%"},
      {"measurement": "Verified HRS Reversal", "setting": "[5]; patients with SIRS", "result": 26.2, "unit": "%"},
      {"measurement": "median time to first RRT", "setting": "[5]; terlipressin group, passage on subjects with SIRS at baseline", "result": 6.0, "unit": "days"}
    ]}
  ]
}
